Values from PubChem BioAssay AID1259254 (NCATS, 2017)
In all, the deposit lists about 59,000 reagents; shown is a random part of them. About 1,550 of all reagents (2.6%) were called active. 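G2 share is only a proxy for re-replication; each gene was hit by three separate siRNAs, and active genes were retested.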 Raw values vary from plate to plate and are shown uncorrected. A number with no mark means an inactive call. The numbers tell different reagents against one gene apart. No sequences are given here. Not given: the amount of reagent.

Test: 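Gene knock-downs that lead to re-replication, shown by excess G2 DNA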 (primary screen)
Cell system: human HCT116 colorectal cancer cells
Knock-down reagent: single siRNA against human genes
Time to read-out: 3 days
Measurement: 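Imaged Hoechst DNA stain sorts each cell into a cycle phase by DNA amount; per plate, G2 fraction set to 0% for non-targeting and 100% for GMNN siRNA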
Direction: G2 robust z-score and G2 cells, % of GMNN control: higher = more G2 cells, more excess DNA replication; raw share of cells in G2: higher = larger share of cells with G2 DNA content
Call rule: 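An siRNA counts as active if its G2 robust z-score lies at least 5 MADs above the screen median; here such calls match roughly 38% of GMNN control or more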

no.	Target gene	reagent	G2 robust z-score	G2 cells, % of GMNN control	raw share of cells in G2 (%)
1	SENP2 (SUMO specific peptidase 2)	1	0.111	3.75	6.87
2	SENP2 (SUMO specific peptidase 2)	2	0.471	6.28	7.13
3	SENP2 (SUMO specific peptidase 2)	3	-0.475	-0.372	3.77
4	FRMD6-AS1 (FRMD6 antisense RNA 1)	1	-0.0773	2.42	3.91
5	FRMD6-AS1 (FRMD6 antisense RNA 1)	2	-0.745	-2.27	3.07
6	FRMD6-AS1 (FRMD6 antisense RNA 1)	3	0.237	4.63	4.34
7	ARL13A (ARF like GTPase 13A)	1	0.385	5.68	5.88
8	ARL13A (ARF like GTPase 13A)	2	0.825	8.77	7
9	ARL13A (ARF like GTPase 13A)	3	3.16	25.2	15.2
10	ZNF850-DT (ZNF850 divergent transcript)	1	-0.245	1.24	4.01
11	ZNF850-DT (ZNF850 divergent transcript)	2	2.77	22.4	10.8
12	ZNF850-DT (ZNF850 divergent transcript)	3	-0.872	-3.17	2.4
13	HROB (homologous recombination factor with OB-fold)	1	-0.321	0.709	4.89
14	HROB (homologous recombination factor with OB-fold)	2	-0.224	1.39	5.23
15	HROB (homologous recombination factor with OB-fold)	3	2.34	19.5	7.83
16	LRTOMT	1	2.1	17.7	8.86
17	LRTOMT	2	0.975	9.82	7.14
18	LRTOMT	3	1.45	13.2	7.65
19	SNRPA1 (small nuclear ribonucleoprotein polypeptide A')	1	0.102	3.69	6.92
20	SNRPA1 (small nuclear ribonucleoprotein polypeptide A')	2	0.102	3.68	5.81
21	SNRPA1 (small nuclear ribonucleoprotein polypeptide A')	3	3.27	26	12.5
22	SLC12A6	1	-0.114	2.17	6.02
23	SLC12A6	2	-0.804	-2.69	2.28
24	SLC12A6	3	0.0458	3.29	6.09
25	MTUS2 (microtubule associated scaffold protein 2)	1	3.25	25.8	14.1
26	MTUS2 (microtubule associated scaffold protein 2)	2	-0.427	-0.0337	3.92
27	MTUS2 (microtubule associated scaffold protein 2)	3	0.461	6.21	5.47
28	H4C13 (H4 clustered histone 13)	1	-0.169	1.78	5.92
29	H4C13 (H4 clustered histone 13)	2	2.88	23.2	13.1
30	H4C13 (H4 clustered histone 13)	3	0.842	8.89	6.49
